# From paper PMC9974511
# No constants are given. Whether binding was seen depends on the method and setting. In cells and extracts the contact can be indirect. Binding can be weak; no strength is given. Sequences can lack the tags named with a protein.
# Target: microtubule (polymerized tubulin) (human (endogenous in HEK293))
# Test: co-sedimentation; microtubule cosedimentation: HEK293 lysate in microtubule-stabilizing buffer (100 mM PIPES pH 6.8, 0.1% NP40, 5 mM MgCl2, 2 mM EGTA, 100 mM NaF, 2 M glycerol), 30 μM Taxol 30 min 37 °C, 12,000 × g 40 min; pellet and supernatant by western blot; with Gcap14 coexpression or Gcap14 …
row,binding,Binder
1,binds,"Flag–Ndel1 (nuclear distribution element nudE-like 1) (protein, UniProt Q9ERR1 1-345) MDGEDIPDFSSLKEETAYWKELSLKYKQSFQEARDELVEFQEGSRELEAELEAQLVQAEQRNRDLQADNQRLKYEVEALKEKLEHQYAQSYKQVSVLEDDLSQTRAIKEQLHKYVRELEQANDDLERAKRATIVSLEDFEQRLNQAIERNAFLESELDEKESLLVSVQRLKDEARDLRQELAVRERQQEVTRKSAPSSPTLDCEKMDSAVQASLSLPATPVGKGTENSFPSPKAIPNGFGTSPLTPSARISALNIVGDLLRKVGALESKLAACRNFAKDQASRKSYVPGSVNCGVMNSNGPECPRSGRATFFHKGAVNGFDPAPPPPGLGSSRPSSAPGMLPLSV"
2,binds,"endogenous Ndel1 (protein, UniProt Q9GZM8 1-345) MDGEDIPDFSSLKEETAYWKELSLKYKQSFQEARDELVEFQEGSRELEAELEAQLVQAEQRNRDLQADNQRLKYEVEALKEKLEHQYAQSYKQVSVLEDDLSQTRAIKEQLHKYVRELEQANDDLERAKRATIVSLEDFEQRLNQAIERNAFLESELDEKESLLVSVQRLKDEARDLRQELAVRERQQEVTRKSAPSSPTLDCEKMDSAVQASLSLPATPVGKGTENTFPSPKAIPNGFGTSPLTPSARISALNIVGDLLRKVGALESKLAACRNFAKDQASRKSYISGNVNCGVLNGNGTKFSRSGHTSFFDKGAVNGFDPAPPPPGLGSSRPSSAPGMLPLSV"
